Experimental data taken from the supplement of paper PMC10849652.
This is one part of the list.

Amino acid sequences for entries named in this document (tags omitted). A change or cut given only in a name is not applied to a line headed by its entry.
UniProt O00139: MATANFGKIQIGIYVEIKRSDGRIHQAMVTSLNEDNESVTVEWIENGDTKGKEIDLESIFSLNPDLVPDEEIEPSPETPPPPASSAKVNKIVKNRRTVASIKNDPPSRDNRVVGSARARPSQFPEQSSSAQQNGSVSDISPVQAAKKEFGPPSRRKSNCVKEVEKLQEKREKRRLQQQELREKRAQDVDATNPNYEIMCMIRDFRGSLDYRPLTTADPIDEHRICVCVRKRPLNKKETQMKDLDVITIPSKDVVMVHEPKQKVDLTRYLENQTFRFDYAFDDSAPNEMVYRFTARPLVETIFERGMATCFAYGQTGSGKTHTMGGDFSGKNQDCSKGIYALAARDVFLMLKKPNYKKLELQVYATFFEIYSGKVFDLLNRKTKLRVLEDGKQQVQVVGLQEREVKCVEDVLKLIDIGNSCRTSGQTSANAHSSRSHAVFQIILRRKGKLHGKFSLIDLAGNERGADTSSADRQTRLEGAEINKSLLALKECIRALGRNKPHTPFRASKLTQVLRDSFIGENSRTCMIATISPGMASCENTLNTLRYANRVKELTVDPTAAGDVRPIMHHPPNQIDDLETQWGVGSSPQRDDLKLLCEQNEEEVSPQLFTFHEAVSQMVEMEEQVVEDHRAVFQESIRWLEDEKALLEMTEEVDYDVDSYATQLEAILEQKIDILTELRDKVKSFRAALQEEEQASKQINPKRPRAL
UniProt Q8N5M9: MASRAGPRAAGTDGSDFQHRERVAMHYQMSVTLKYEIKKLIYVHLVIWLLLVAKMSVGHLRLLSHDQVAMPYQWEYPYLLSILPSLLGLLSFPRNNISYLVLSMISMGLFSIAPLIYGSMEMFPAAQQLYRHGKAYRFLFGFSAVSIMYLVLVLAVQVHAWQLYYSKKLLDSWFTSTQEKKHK
UniProt Q06136: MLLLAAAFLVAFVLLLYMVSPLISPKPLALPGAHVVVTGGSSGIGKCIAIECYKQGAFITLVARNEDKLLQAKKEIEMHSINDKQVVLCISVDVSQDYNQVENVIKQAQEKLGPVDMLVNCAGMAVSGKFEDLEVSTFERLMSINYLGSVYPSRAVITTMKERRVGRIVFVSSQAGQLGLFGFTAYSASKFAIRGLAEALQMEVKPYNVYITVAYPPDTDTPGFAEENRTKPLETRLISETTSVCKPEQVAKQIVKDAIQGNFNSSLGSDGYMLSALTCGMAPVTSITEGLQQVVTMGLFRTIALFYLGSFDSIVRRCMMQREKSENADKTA
UniProt Q7LBC6: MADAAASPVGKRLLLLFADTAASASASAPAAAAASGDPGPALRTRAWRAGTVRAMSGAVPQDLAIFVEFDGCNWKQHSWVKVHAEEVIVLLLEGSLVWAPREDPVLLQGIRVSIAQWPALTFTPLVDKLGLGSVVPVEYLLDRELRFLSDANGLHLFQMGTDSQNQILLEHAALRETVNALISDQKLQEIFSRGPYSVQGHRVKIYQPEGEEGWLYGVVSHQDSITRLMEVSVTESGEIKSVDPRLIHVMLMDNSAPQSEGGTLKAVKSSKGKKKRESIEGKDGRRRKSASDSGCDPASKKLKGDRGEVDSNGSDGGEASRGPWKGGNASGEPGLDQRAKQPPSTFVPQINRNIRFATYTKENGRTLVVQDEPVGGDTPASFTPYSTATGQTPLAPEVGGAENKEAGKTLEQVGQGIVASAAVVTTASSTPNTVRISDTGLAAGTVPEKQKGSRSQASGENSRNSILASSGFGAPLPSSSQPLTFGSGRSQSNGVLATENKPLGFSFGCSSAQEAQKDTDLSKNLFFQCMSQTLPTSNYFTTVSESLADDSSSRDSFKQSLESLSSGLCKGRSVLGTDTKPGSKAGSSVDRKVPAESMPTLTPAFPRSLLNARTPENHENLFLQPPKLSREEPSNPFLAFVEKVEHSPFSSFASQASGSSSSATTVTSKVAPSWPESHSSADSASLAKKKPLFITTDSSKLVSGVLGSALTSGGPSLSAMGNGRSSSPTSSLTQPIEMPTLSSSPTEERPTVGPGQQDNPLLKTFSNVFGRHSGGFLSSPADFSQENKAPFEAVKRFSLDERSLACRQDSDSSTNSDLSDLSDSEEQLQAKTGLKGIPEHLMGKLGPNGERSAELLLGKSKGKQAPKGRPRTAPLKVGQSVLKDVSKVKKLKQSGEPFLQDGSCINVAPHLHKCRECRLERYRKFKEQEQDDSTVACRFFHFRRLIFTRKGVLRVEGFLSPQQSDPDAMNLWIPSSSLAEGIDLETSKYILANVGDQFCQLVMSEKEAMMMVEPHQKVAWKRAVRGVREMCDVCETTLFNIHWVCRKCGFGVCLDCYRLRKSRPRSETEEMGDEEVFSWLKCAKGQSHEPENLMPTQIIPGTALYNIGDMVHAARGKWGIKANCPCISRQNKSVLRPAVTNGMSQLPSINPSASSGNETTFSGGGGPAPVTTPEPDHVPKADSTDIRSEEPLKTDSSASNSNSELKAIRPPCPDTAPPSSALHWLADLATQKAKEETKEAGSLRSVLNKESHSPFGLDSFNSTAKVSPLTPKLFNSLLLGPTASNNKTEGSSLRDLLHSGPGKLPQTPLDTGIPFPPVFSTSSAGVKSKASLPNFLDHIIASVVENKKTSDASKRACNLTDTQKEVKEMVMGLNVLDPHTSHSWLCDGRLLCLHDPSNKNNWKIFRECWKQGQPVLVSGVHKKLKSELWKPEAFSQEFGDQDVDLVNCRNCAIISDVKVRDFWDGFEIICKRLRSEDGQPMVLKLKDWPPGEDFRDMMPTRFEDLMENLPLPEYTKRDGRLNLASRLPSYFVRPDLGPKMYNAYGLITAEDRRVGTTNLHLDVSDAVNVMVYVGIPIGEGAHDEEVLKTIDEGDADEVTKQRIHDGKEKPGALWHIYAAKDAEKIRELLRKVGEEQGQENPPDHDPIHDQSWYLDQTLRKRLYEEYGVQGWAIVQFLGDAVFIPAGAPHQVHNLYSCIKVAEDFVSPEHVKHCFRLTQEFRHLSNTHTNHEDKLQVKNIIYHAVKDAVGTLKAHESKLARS
UniProt Q9H910: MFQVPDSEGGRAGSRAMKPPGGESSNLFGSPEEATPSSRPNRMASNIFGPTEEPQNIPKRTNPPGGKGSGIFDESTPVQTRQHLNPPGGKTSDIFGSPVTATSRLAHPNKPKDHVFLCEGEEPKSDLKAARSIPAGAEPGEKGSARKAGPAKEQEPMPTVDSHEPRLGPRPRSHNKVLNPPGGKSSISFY
UniProt Q8IZA0: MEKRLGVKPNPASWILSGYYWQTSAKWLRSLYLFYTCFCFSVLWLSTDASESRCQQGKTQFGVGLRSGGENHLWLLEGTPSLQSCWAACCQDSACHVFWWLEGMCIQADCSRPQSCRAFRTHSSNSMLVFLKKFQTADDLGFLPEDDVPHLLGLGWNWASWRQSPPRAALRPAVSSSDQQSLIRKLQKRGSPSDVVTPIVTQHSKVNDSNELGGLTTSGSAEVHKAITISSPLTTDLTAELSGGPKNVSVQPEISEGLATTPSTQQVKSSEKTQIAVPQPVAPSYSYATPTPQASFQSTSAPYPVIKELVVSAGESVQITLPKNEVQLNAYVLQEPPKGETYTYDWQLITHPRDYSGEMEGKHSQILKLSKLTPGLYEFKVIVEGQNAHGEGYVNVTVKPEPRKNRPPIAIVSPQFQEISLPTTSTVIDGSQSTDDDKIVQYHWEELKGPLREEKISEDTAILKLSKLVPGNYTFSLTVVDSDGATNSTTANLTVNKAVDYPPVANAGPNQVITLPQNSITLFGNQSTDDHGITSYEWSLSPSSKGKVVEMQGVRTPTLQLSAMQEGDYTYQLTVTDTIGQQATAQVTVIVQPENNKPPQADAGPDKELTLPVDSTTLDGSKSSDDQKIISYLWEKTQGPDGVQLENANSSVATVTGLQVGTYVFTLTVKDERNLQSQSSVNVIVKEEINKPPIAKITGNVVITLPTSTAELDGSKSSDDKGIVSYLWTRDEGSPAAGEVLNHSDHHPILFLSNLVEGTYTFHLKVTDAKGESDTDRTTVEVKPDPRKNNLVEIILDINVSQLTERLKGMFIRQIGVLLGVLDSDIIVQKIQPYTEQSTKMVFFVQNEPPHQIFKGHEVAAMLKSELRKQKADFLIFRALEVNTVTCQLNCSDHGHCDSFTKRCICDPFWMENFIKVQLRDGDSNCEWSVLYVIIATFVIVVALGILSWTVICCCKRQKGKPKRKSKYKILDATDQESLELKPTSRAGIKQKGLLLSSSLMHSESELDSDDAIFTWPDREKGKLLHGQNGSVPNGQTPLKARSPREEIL
UniProt Q8IWB1: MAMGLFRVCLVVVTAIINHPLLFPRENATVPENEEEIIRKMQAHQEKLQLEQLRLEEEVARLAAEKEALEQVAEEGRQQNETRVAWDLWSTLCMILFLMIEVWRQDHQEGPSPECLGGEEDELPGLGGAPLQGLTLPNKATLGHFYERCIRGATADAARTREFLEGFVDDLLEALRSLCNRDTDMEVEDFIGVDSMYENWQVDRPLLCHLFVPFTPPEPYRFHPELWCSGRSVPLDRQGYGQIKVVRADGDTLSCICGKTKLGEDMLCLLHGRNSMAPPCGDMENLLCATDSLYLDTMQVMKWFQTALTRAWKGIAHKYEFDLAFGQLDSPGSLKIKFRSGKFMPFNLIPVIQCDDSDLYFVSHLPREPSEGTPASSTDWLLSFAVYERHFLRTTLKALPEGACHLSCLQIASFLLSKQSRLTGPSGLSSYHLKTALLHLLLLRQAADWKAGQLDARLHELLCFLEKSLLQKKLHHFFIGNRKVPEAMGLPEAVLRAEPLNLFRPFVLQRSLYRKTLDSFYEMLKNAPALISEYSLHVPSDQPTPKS
UniProt Q07666, whole entry, looked up: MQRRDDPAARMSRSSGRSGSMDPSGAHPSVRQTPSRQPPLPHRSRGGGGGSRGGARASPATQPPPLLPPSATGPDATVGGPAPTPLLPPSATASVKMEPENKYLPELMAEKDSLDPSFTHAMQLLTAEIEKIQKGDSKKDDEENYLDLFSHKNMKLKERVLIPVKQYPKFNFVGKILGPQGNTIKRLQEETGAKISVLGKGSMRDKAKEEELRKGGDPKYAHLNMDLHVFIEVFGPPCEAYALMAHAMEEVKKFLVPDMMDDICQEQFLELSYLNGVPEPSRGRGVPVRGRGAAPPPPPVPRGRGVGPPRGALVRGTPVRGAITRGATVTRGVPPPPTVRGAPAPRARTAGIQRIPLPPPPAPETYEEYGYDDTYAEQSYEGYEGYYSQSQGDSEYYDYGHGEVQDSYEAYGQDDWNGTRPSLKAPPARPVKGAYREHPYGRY
UniProt Q9P0J7: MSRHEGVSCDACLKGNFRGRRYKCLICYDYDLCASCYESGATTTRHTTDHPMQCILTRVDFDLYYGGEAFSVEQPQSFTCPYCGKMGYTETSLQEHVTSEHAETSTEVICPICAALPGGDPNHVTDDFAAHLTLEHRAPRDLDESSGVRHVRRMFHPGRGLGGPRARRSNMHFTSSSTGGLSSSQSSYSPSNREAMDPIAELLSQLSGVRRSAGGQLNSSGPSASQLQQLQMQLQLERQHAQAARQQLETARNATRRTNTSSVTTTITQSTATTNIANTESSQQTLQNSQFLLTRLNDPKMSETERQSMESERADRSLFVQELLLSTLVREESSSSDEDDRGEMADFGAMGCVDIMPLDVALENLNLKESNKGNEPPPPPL
UniProt P05412, whole entry, looked up: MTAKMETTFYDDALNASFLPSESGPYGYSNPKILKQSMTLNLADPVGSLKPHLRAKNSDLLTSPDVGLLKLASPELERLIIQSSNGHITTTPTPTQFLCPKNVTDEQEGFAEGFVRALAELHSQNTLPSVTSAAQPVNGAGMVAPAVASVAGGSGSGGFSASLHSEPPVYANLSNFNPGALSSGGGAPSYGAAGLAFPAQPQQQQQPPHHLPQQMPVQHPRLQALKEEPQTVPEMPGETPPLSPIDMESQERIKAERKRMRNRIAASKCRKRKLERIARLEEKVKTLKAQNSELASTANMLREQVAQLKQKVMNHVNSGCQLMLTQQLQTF
UniProt O94889: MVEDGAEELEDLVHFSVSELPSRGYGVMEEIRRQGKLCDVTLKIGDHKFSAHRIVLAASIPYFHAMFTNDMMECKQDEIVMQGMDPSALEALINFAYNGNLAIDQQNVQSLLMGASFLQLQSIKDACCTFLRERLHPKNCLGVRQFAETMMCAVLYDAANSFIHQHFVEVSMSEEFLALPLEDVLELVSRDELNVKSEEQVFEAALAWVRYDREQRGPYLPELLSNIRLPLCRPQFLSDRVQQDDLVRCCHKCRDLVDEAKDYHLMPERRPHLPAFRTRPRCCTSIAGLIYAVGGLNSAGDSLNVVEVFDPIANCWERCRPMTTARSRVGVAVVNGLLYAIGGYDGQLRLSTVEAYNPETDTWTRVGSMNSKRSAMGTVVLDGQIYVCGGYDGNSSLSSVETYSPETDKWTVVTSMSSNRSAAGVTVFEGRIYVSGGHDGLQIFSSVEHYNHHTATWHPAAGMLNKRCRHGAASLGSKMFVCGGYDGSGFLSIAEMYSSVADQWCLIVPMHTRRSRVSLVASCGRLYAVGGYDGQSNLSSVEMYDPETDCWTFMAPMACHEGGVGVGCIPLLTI

Experiments:
Test in all cases: log2 fold change, soluble protein after heating vs DMSO (PISA); higher = thermal stabilisation; K562 cells, 10 uM, 30 min; active = over 0.2 and 3.5 SD of the protein, either way, in both replicates (recomputed)
[1] = compound: C1=CC=C(C=C1)[C@H](COC2=CC3=C(C=C2)NC(=O)N3)NC(=O)C4=CC=CN(C4=O)CC5=CC(=C(C=C5)F)F
Outline: (§1)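 Soluble protein was quantified by TMTpro 16plex LC-MS/MS after channel sums were equalised. It was obtained as the supernatant after 21,000xg for 90 min from pooled aliquots of K562 cells (2×10^6 cells/mL, 10 μM compound, 30 min) heated for 3 min across 48°C-58°C and extracted in PBS with 0.5% NP-40 at 4°C. Thermal stability values are relative to control samples and come from duplicates. They are given as log2 fold changes.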

[2] = compound: CC1=C(SC2=C1C(=N[C@H](C3=NN=C(N32)C)CC(=O)N)C4=CC=C(C=C4)Cl)C
Outline: as §1

[3] = compound: CC1=C2C(=CC=C1)N=C(N(C2=O)C3=CC=CC=C3C)CN4C=NC5=C(N=CN=C54)N
Outline: as §1

[4] = compound: Cc1sc2c(c1C)C(c1ccc(Cl)cc1)=N[C@@H](CC(=O)OC(C)(C)C)c1nnc(C)n1-2
Outline: as §1

[5] = compound: c1ccc([C@@H]2C[C@H]2NC2CCNCC2)cc1
Outline: as §1

Measured: log2 fold change

KIF2C (UniProt Q99661)
inactive: [1] -0.062 | [2] -0.021 | [3] 0.094 | [4] 0.002 | [5] -0.029

KIF2A isoform 4 (UniProt O00139)
inactive: [1] 0.044 | [2] -0.074 | [3] -0.027 | [4] 0.084 | [5] 0.007

KCNAB2 (UniProt Q13303)
inactive: [1] -0.055 | [2] 0.057 | [3] -0.025 | [4] 0.023 | [5] 0.065

JAGN1 (UniProt Q8N5M9)
inactive: [1] 0.031 | [2] 0.135 | [3] -0.018 | [4] -0.109 | [5] 0.027

KDSR (UniProt Q06136)
inactive: [1] -0.014 | [2] 0.021 | [3] 0.017 | [4] -0.042 | [5] 0.029

KDM3B (UniProt Q7LBC6)
inactive: [1] -0.013 | [2] 0.026 | [3] 0.08 | [4] 0.038 | [5] 0.071

Taken from the results shown (2 entries):
JAGN1 (UniProt Q8N5M9)
inactive: [1] 0.031 | [2] 0.135 | [3] -0.018 | [4] -0.109 | [5] 0.027

KDSR (UniProt Q06136)
inactive: [1] -0.014 | [2] 0.021 | [3] 0.017 | [4] -0.042 | [5] 0.029

Further records follow:

JPT2 isoform 3 (UniProt Q9H910)
inactive: [1] -0.017 | [2] 0.031 | [3] 0.008 | [4] 0.025 | [5] 0.041

IWS1 (UniProt Q96ST2)
inactive: [1] -0.01 | [2] 0.08 | [3] 0.037 | [4] 0.045 | [5] -0.035

KIAA0319L (UniProt Q8IZA0)
inactive: [1] 0.013 | [2] 0.003 | [3] 0.026 | [4] 0.011 | [5] 0.03

ITPRIP (UniProt Q8IWB1)
inactive: [1] -0.024 | [2] 0.096 | [3] 0.054 | [4] -0.081 | [5] 0.027

KIF13A (UniProt Q9H1H9)
inactive: [1] 0.022 | [2] 0.039 | [3] 0.054 | [4] -0.059 | [5] -0.027

KATNA1 (UniProt O75449)
inactive: [1] -0.001 | [2] -0.011 | [3] 0.018 | [4] 0.071 | [5] 0.001

KIAA1324L (UniProt A8MWY0)
inactive: [1] 0.041 | [2] 0.044 | [3] 0 | [4] -0.001 | [5] 0.035

KDM5C (UniProt P41229)
inactive: [1] -0.105 | [2] 0.061 | [3] 0.126 | [4] 0 | [5] 0.04

KHDRBS1 (UniProt Q07666)
inactive: [1] -0.038 | [2] -0.018 | [3] -0.025 | [4] 0.055 | [5] -0.021

KCTD15 (UniProt Q96SI1)
inactive: [1] -0.035 | [2] 0.007 | [3] 0.056 | [4] 0.015 | [5] 0

KIF15 (UniProt Q9NS87)
inactive: [1] 0.155 | [2] -0.155 | [3] -0.122 | [4] 0.043 | [5] 0.012

KCMF1 (UniProt Q9P0J7)
inactive: [1] -0.024 | [2] -0.049 | [3] -0.069 | [4] 0.047 | [5] 0.019

JTB (UniProt O76095)
inactive: [1] 0.01 | [2] 0.061 | [3] -0.098 | [4] 0.057 | [5] 0.036

KRTCAP2 isoform 2 (UniProt Q8N6L1)
inactive: [1] 0.008 | [2] 0.004 | [3] -0.092 | [4] 0 | [5] 0.07

KIF14 (UniProt Q15058)
inactive: [1] 0.216 | [2] -0.502 | [3] 0.117 | [5] -0.101

JUN (UniProt P05412)
inactive: [1] 0.078 | [2] 0.195 | [4] -0.035 | [5] 0.405

KLHL18 (UniProt O94889)
inactive: [1] 0.014 | [2] 0.101 | [3] 0.135 | [4] 0.017 | [5] -0.021

KCTD10 (UniProt Q9H3F6)
inactive: [1] -0.014 | [2] -0.009 | [3] 0.007 | [4] -0.01 | [5] 0.03

KDM2A (UniProt Q9Y2K7)
inactive: [1] -0.028 | [2] -0.015 | [3] -0.039 | [4] -0.059 | [5] -0.025
